For part of these data: No signal at the amounts used counts as a negative. For part of these data: At least one verdict rests on a figure or table, not on a statement of the authors. For part of these data: Tags and fusion partners may be left off the protein sequences shown. For part of these data: The comparison behind a weaker result is the experiment's own reference, which may not be listed here. For part of these data: For at least one entry, the source does not settle the construct or the ends of the probe.
What was measured:
Assay in all cases: EMSA
UAF1 436X (human) = UAF1 436X (human) (UniProt Q8TAF3); conditions: 100-400 nM protein, as avid as full length, EMSA with 10 nM 32P-labeled DNA, binding buffer, recombinant protein, residues 1-436
[1] = molecular target: UAF1 3A R30A,R50A,K168A (human) (UniProt Q8TAF3); conditions: 200-800 nM protein, stated deficient, EMSA with 10 nM 32P-labeled DNA, binding buffer, recombinant protein, protein details: Strep II
UAF1 (WT) (human) = UAF1 (WT) (human) (UniProt Q8TAF3); conditions: 100-400 nM protein, 10 nM DNA, EMSA with 10 nM 32P-labeled DNA, binding buffer, recombinant protein, protein details: Strep II
UAF1 SLD (human) = molecular target: T1, UAF1 SLD (human) (UniProt Q8TAF3); conditions: 100-400 nM protein, EMSA with 10 nM 32P-labeled DNA, binding buffer, recombinant protein, residues 390-677
T1 sequence (looked up): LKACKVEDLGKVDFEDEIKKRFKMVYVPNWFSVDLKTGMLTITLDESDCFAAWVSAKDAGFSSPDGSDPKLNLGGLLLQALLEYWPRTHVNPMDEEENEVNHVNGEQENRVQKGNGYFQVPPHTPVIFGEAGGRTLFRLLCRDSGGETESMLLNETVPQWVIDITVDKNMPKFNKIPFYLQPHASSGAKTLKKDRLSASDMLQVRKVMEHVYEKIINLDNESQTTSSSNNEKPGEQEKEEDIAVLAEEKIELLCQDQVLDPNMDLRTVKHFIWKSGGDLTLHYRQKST

[2] = molecular target: UAF1 11A R30A,R50A,K117A,T161A,K168A,S230A,R272A,R274A,K275A,K318A,I363A (human) (UniProt Q8TAF3); conditions: 200-800 nM protein, stated deficient, EMSA with 10 nM 32P-labeled DNA, binding buffer, recombinant protein, protein details: Strep II
[3] = label: 32P on D3, folded or branched DNA
[4] = label: 32P on P1, single-stranded DNA

CATTGCATATTTAAAACATGTTGGAAGGCTCGATGCATGCTGATAGCCTACTAGTGCTGCTGGCTTTCAAATGACCTCTTATCAAGTGAC / GTCACTTGATAAGAGGTCATTTGAATTCATGGCTTAGAGCTTAATTGCTGAATCTGGTGCTGGGATCCAACATGTTTTAAATATGCAATG / CTGCTACGATGCTAGTCGTAGCTCGGCAGTCGTAGCAGGTTCCCAGCACCAGATTCAGCAATTAAGCTCTAAGCCATGAA [D-loop D1/D2/D3]
binding result (UAF1 436X (human); [3]): binds
binding result [1, 3]: binds more weakly
binding result (UAF1 (WT) (human); [3]): binds
binding result (UAF1 SLD (human); [3]): no binding
binding result [2, 3]: binds more weakly

TTATATCCTTTACTTTGAATTCTATGTTTAACCTTTTACTTATTTTGTATTAGCCGGATCCTTATTTCAATTATGTTCAT (double strand) [dsDNA P1/P2]
binding result (UAF1 436X (human); label: 32P on P1): binds
binding result ([1]; label: 32P on P1): binds more weakly
binding result (UAF1 (WT) (human); label: 32P on P1): binds
binding result (UAF1 SLD (human); label: 32P on P1): no binding
binding result ([2]; label: 32P on P1): binds more weakly

TTATATCCTTTACTTTGAATTCTATGTTTAACCTTTTACTTATTTTGTATTAGCCGGATCCTTATTTCAATTATGTTCAT [ssDNA P1]
binding result (UAF1 436X (human); [4]): binds
binding result [1, 4]: binds more weakly
binding result (UAF1 (WT) (human); [4]): binds
binding result (UAF1 SLD (human); [4]): no binding
binding result [2, 4]: binds more weakly

Source: publication PMC6599204
